# Data taken from patent US7524975B2, “Peroxisome proliferator activated receptor ligand and process for producing the same” (Kaneka Corporation, priority 2001, dated 2009).
# Some of these results come from one statement about several compounds together.
# Target: T1, mouse PPARγ ligand-binding site (Mus musculus, UniProt P37238)
# T1 construct: expressed in transfected cells; host or cells: CV-1 cells (African green monkey kidney)
# T1 sequence (P37238 174-475 isoform P37238-2): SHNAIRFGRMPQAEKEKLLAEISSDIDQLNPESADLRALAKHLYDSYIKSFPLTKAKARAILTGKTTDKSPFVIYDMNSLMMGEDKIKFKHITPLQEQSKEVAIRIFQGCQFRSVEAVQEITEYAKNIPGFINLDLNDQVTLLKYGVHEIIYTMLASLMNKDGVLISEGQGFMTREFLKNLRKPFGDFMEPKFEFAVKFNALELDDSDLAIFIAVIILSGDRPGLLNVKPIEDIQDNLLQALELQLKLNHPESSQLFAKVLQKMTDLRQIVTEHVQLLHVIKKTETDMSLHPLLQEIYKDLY
# Assay: Measurement of PPARγ ligand activity (GAL4 chimera luciferase reporter in CV-1 cells)
# Assay type: cell-based
# Settings: compared with 0.5 μM troglitazone
# Method: CV-1 cells (cultured cells derived from the kidney of a male African green monkey) were inoculated on a 96-well culture plate in a concentration of 6×10^3 cells/well and incubated at 37° C. in 5% CO2 for 24 hours. The medium used was DMEM (Dulbecco's Modified Eagle Medium: GIBCO) containing 10% FBS (fetal bovine serum), 10 ml/L penicillin and streptomycin solution (containing 5000 IU/ml and 5,000 μg/ml, respectively: GIBCO) and 37 mg/L ascorbic acid (Wako Pure Chemical Industries, Ltd.). […] 4xUASg-luc is a reporter plasmid comprising four GAL4 response sequences (UASg) integrated into a region upstream of a luciferase gene. At about 24 hours after transfection, the medium was exchanged with a sample-containing medium, and the cells were cultured for 24 hours (n=4). The sample-containing medium was prepared by dissolving a sample in dimethyl sulfoxide (DMSO) in an amount of 1/1000 based on the medium, while for the untreated control, DMSO in an amount of 1/1000 based on the medium was used in place of the sample. After the cells were washed with a Ca- and Mg-containing phosphate buffered physiological saline (PBS+), LucLite (Packard) was added thereto, and the intensity of luciferase luminescence was measured with a TopCount microplate scintillation/luminescence counter (Packard).
# As the control group, pM (plasmid from which the PPARγ ligand-binding site gene was removed) was measured in place of pM-mPPARγ in the same manner as for the measurement group. For each sample, the ratio (measurement group/control group) of the average luminescence intensity of the measurement group (n=4) to that of the control group was calculated, and the specific activity relative to the activity of the untreated control was regarded as the PPARγ ligand activity of the sample.
row,SMILES,PPARγ ligand activity compared with positive control troglitazone (in words)
1,"COc1ccc(C2COc3c(ccc4c3C=CC(C)(C)O4)C2)c(O)c1 (stereo not drawn) [Compound 21, 4′-O-Methylglabridin]",higher PPARγ ligand activity than that of a positive control containing 0.5 μM troglitazone
2,"C=CC(C)(C)c1cc(/C=C/C(=O)c2ccc(O)cc2)c(OC)cc1O [Compound 24, Licochalcone A]",higher PPARγ ligand activity than that of a positive control containing 0.5 μM troglitazone
3,"COc1cc2c(c(O)c1CC=C(C)C)C(=O)C(c1ccc(O)cc1O)CO2 (stereo not drawn) [Compound 8, Glyasperin B]",higher PPARγ ligand activity than that of a positive control containing 0.5 μM troglitazone
4,"COc1c2c(cc(O)c1CC=C(C)C)OCC(c1ccc(O)cc1O)=C2 [Compound 7, Dehydroglyasperin C]",higher PPARγ ligand activity than that of a positive control containing 0.5 μM troglitazone
5,"COc1cc2c(c(OC)c1CC=C(C)C)C=C(c1ccc(O)cc1O)CO2 [Compound 4, 3-(2′,4′-dihydroxyphenyl)-6-(3″,3″-dimethylallyl)-5,7-dimethoxy-2H-chromene]",higher PPARγ ligand activity than that of a positive control containing 0.5 μM troglitazone
6,"CC1(C)C=Cc2c(O)ccc(C3=Cc4ccc(O)cc4OC3)c2O1 [Compound 19, Glabrene]",higher PPARγ ligand activity than that of a positive control containing 0.5 μM troglitazone
7,"COc1c(/C=C/C(=O)c2ccc(O)cc2)ccc(O)c1CC=C(C)C [Compound 26, Licochalcone C]",higher PPARγ ligand activity than that of a positive control containing 0.5 μM troglitazone
8,"CC(C)=CCc1cc([C@@H]2CC(=O)c3ccc(O)c(CC=C(C)C)c3O2)ccc1O [Compound 23, Glabrol]",higher PPARγ ligand activity than that of a positive control containing 0.5 μM troglitazone
9,"CC1(C)C=Cc2cc(-c3coc4cc(O)cc(O)c4c3=O)cc(O)c2O1 [Compound 12, Semilicoisoflavone B]",higher PPARγ ligand activity than that of a positive control containing 0.5 μM troglitazone
10,"COc1c(-c2ccc(O)cc2)oc2cc(O)c(CC=C(C)C)c(O)c2c1=O [Compound 16, Topazolin]",higher PPARγ ligand activity than that of a positive control containing 0.5 μM troglitazone
11,"COc1cc(O)cc2c1C(=O)C(c1cc(O)c3c(c1)C=CC(C)(C)O3)CO2 (stereo not drawn) [Compound 9, Glycyrrhisoflavanone]",higher PPARγ ligand activity than that of a positive control containing 0.5 μM troglitazone
12,"COc1ccc(C2COc3c(ccc4c3C=CC(C)(C)O4)C2)c(O)c1O (stereo not drawn) [Compound 22, 3′-Hydroxyl-4′-O-methylglabridin]",higher PPARγ ligand activity than that of a positive control containing 0.5 μM troglitazone
13,"CC(C)=CCc1c(O)cc2oc(-c3ccc(O)cc3)c(O)c(=O)c2c1O [Compound 15, Licoflavonol]",higher PPARγ ligand activity than that of a positive control containing 0.5 μM troglitazone
14,"CC1(C)C=Cc2c(ccc3c2OC[C@@H](c2ccc(O)cc2O)C3)O1 [Compound 18, Glabridin]",higher PPARγ ligand activity than that of a positive control containing 0.5 μM troglitazone
15,"CC(C)=CCc1cc(-c2oc3cc(O)cc(O)c3c(=O)c2O)ccc1O [Compound 6, Isolicoflavonol]",higher PPARγ ligand activity than that of a positive control containing 0.5 μM troglitazone
16,"COc1c(CC=C(C)C)c(O)cc2oc(=O)c(-c3ccc(O)cc3O)cc12 [Compound 1, Glycycoumarin]",higher PPARγ ligand activity than that of a positive control containing 0.5 μM troglitazone
17,"COc1cc2c(c(OC)c1CC=C(C)C)CC(c1ccc(O)cc1O)CO2 (stereo not drawn) [Compound 11, Glyasperin D]",higher PPARγ ligand activity than that of a positive control containing 0.5 μM troglitazone
18,"CC(C)=CCc1c(O)cc(O)c2c(=O)c(-c3ccc(O)cc3)coc12 [Compound 10, Lupiwighteone]",higher PPARγ ligand activity than that of a positive control containing 0.5 μM troglitazone
19,"CC(C)=CCc1cc(-c2coc3cc(O)cc(O)c3c2=O)cc(O)c1O [Compound 17, Glycyrrhisoflavone]",higher PPARγ ligand activity than that of a positive control containing 0.5 μM troglitazone
20,"COc1c(-c2ccc(O)cc2)oc2cc(O)cc(O)c2c1=O [Compound 14, Kaempferol3-O-methylester]",higher PPARγ ligand activity than that of a positive control containing 0.5 μM troglitazone
21,"CC(C)=CCc1cc(-c2coc3c(CC=C(C)C)c(O)cc(O)c3c2=O)cc(O)c1O [Compound 3, Glyurallin B]",higher PPARγ ligand activity than that of a positive control containing 0.5 μM troglitazone
22,"COc1cc(O)ccc1/C=C/C(=O)c1ccc(O)cc1 [Compound 5, Echinatin]",higher PPARγ ligand activity than that of a positive control containing 0.5 μM troglitazone
23,"CC(C)=CCc1cc(C(=O)CC(=O)c2cc(CC=C(C)C)c(O)cc2O)ccc1O [Compound 27, Glycyrdione A]",higher PPARγ ligand activity than that of a positive control containing 0.5 μM troglitazone
24,"COc1cc2oc(=O)c(-c3ccc(O)cc3O)cc2c(OC)c1CC=C(C)C [Compound 2, Glycyrin]",higher PPARγ ligand activity than that of a positive control containing 0.5 μM troglitazone
